# Source: the supplement of paper PMC6411743
# Protein sequences, listed by entry. Tags and fused reporters are not part of them. Lines headed by an entry give the natural chain unless they say otherwise; changes in a name come on top.
# UniProt Q8WW59: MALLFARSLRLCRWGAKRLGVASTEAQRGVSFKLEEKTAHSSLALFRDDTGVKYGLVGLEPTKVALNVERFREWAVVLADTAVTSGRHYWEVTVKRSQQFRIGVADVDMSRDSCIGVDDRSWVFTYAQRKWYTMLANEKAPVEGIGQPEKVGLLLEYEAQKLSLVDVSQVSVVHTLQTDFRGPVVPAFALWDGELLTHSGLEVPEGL
# UniProt Q92620: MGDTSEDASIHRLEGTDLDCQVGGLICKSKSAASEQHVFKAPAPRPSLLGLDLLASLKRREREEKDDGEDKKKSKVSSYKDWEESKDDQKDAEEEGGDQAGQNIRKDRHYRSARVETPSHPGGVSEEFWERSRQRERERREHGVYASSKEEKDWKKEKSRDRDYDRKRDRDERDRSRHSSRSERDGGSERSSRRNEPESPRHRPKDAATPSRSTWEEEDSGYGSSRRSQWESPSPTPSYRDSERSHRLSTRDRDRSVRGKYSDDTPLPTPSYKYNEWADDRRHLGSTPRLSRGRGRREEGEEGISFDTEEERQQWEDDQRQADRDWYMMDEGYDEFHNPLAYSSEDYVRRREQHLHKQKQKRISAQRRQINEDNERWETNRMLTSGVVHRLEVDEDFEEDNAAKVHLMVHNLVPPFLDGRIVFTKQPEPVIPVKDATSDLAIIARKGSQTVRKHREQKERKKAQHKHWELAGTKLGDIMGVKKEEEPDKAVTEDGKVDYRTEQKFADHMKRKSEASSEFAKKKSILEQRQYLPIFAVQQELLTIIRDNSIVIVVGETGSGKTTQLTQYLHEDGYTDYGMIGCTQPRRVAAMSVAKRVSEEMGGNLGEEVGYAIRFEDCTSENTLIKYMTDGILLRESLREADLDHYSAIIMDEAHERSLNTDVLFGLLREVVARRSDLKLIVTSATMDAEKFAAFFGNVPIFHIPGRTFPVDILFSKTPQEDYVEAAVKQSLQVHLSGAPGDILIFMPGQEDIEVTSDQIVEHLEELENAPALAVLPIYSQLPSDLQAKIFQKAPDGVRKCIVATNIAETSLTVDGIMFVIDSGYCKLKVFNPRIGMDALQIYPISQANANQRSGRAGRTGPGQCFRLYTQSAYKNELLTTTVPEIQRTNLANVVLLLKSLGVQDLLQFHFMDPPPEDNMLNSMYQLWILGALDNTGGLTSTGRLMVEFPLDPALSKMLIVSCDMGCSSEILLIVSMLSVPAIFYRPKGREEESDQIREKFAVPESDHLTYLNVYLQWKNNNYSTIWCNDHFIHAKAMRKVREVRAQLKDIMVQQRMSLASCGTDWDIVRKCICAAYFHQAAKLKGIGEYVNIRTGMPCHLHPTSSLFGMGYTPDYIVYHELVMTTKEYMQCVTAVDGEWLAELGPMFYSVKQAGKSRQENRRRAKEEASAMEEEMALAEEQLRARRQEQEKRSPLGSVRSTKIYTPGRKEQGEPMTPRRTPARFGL
# UniProt Q92945: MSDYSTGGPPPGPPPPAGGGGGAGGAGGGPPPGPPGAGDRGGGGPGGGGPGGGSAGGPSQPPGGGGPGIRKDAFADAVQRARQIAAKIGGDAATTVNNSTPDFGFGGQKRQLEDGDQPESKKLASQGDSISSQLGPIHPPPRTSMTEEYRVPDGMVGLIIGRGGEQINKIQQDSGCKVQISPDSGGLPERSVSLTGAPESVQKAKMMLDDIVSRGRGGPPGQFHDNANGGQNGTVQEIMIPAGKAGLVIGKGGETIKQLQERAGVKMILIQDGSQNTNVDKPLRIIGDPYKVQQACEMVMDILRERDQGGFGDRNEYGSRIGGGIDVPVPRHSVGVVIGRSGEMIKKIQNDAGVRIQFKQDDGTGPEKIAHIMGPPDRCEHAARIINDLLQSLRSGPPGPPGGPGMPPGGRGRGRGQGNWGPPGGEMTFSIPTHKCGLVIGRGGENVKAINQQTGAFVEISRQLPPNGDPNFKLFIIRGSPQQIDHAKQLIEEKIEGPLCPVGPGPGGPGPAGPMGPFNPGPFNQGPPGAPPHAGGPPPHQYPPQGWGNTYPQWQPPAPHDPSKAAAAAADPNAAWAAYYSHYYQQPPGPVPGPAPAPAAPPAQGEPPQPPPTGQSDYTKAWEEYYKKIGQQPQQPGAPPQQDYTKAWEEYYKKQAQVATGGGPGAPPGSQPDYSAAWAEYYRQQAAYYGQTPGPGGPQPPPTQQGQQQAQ
# UniProt Q8NFG4: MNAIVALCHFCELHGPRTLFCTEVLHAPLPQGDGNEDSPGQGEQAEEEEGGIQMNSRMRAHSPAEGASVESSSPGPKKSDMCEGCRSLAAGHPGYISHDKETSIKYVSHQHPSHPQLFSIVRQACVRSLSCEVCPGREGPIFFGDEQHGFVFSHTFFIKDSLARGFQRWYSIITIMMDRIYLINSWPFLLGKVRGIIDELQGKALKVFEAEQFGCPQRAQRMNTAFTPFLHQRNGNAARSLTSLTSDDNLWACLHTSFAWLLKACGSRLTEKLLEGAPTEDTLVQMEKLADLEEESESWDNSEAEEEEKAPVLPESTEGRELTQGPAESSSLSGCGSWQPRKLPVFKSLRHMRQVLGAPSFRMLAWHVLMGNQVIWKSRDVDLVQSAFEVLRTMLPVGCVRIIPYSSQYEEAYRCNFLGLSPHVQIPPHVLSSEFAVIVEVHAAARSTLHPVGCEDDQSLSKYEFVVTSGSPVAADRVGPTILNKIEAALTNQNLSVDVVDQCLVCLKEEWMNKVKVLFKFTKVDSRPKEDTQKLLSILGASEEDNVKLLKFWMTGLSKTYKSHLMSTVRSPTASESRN
# UniProt Q92556, whole entry: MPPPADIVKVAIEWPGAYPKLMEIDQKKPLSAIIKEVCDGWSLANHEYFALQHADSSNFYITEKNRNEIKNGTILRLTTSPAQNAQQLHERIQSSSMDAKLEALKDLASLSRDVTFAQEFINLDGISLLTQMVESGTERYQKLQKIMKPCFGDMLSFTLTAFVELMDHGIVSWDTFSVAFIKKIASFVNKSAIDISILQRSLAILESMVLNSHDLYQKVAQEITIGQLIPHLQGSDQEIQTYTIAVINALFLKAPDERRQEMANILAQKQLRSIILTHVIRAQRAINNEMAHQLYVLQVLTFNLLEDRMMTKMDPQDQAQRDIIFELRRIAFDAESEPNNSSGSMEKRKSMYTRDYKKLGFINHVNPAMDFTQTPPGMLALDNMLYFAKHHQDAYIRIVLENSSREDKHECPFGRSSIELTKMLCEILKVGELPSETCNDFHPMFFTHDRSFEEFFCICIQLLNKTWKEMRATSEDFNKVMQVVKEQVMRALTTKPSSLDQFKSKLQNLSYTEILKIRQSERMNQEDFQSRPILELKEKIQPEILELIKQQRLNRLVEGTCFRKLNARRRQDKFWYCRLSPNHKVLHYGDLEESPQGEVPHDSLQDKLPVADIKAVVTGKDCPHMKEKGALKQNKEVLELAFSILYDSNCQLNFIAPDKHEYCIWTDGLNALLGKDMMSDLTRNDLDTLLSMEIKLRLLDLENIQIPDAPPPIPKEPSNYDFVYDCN
# UniProt Q92859: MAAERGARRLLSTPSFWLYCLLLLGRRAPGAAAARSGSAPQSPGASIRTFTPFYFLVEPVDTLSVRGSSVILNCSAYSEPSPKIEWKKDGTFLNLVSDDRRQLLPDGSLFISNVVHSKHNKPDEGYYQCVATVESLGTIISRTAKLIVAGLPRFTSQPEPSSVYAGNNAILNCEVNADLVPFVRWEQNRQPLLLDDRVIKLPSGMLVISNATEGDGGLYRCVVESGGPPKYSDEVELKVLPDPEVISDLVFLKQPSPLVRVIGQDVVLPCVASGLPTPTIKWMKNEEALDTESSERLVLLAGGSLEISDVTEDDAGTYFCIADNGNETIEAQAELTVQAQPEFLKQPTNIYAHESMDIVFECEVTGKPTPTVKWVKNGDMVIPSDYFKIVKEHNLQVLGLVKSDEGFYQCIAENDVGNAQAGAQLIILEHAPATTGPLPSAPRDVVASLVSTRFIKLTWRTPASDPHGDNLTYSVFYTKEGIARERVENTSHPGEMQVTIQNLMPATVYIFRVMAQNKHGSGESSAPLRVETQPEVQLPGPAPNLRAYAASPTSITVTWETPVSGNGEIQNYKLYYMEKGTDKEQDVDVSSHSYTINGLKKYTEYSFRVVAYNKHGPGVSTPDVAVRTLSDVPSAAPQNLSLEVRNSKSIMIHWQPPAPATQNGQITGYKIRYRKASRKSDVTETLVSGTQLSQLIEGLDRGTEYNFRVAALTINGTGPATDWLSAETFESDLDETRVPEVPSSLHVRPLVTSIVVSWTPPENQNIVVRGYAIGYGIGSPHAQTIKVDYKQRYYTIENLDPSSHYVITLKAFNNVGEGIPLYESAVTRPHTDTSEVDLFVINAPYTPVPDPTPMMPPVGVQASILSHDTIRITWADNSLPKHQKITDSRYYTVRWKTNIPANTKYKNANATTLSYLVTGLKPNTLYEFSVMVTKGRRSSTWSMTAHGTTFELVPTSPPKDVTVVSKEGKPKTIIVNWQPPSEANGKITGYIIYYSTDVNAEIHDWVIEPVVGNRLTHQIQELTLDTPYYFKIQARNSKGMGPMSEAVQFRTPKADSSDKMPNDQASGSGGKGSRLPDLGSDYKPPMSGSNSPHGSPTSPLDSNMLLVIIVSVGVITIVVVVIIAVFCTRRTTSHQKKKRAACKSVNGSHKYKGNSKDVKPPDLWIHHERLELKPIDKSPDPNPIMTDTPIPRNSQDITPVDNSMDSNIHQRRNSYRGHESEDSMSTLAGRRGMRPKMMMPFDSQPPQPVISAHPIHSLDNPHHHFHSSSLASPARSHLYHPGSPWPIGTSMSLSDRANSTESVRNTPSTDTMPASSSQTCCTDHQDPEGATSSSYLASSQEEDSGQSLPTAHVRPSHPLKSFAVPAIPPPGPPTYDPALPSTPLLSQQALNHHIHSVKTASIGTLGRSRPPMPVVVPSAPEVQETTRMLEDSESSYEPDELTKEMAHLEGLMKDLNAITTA
# UniProt Q8ND82: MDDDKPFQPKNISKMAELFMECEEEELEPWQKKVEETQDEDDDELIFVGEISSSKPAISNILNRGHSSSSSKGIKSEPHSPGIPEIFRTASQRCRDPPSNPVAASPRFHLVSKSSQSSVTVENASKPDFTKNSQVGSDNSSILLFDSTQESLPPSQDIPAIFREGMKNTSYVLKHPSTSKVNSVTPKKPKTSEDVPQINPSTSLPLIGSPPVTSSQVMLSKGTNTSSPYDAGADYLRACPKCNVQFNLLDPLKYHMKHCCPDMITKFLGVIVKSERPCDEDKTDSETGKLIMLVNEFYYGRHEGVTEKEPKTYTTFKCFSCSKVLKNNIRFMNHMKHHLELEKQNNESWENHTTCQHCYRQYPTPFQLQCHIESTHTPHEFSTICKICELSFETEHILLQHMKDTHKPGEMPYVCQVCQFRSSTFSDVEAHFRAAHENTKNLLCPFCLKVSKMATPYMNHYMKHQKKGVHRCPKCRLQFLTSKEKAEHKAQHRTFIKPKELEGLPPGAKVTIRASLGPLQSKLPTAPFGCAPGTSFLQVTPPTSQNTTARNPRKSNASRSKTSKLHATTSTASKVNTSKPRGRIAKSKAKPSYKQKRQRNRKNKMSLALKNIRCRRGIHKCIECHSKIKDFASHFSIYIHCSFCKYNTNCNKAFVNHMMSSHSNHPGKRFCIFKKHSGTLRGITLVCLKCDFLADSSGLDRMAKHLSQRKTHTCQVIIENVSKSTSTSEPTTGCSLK
# UniProt Q8TBX8: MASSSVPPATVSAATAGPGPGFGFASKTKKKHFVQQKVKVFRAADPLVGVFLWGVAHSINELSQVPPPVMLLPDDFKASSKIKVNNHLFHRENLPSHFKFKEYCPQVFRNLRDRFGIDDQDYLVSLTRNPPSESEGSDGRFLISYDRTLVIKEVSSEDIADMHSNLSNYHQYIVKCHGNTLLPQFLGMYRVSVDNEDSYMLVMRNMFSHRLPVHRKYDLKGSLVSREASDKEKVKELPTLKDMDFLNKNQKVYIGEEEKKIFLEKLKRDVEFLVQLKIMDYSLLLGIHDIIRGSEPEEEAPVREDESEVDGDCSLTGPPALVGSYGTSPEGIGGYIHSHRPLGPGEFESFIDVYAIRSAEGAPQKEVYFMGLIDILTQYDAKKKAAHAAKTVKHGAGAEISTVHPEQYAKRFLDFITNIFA
# UniProt Q8WUB8: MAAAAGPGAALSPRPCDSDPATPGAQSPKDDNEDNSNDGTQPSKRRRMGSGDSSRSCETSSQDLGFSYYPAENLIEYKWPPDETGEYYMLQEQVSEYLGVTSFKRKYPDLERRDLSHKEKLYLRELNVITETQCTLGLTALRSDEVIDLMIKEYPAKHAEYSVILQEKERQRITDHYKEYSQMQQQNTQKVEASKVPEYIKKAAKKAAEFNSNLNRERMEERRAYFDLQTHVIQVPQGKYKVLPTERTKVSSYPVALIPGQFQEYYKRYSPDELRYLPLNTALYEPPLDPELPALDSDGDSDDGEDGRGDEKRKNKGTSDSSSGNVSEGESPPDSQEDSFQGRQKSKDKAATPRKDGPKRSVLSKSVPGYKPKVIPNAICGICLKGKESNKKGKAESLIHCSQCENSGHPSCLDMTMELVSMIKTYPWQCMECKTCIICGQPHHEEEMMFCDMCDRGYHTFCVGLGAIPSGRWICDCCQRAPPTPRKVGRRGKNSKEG
# ± gives the standard deviation of the averaged measurements. The entries are a selection whose mix differs from that of the whole data set.
# Compound: Nc1ncnc2c1ncn2[C@@H]1O[C@H](COP(=O)(O)OP(=O)(O)NP(=O)(O)O)[C@@H](O)[C@H]1O [adenylyl imidodiphosphate]
# Assay: NP40-soluble protein abundance relative to vehicle (solubility fold change) (ratio); higher = more soluble protein in presence of AMP-PNP
# Procedure, shortened: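 Crude Jurkat lysate, prepared by Dounce homogenisation, was exposed to eight concentrations from 0.1 to 10 mM for 10 min at room temperature and then 3 min at 37 °C. Solubilisation used 0.8% NP40 with benzonase for 60 min at 4 °C, followed by ultracentrifugation and TMT labelling of the supernatant for LC-MS/MS. After vsn normalisation of intensities, each value is the fold change against the detergent-processed vehicle within each replicate, across three independent experiments.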
Target,NP40-soluble protein abundance (concentration: 1mM),NP40-soluble protein abundance (concentration: 2mM),NP40-soluble protein abundance (concentration: 4mM),NP40-soluble protein abundance (concentration: 6mM),NP40-soluble protein abundance (concentration: 8mM),NP40-soluble protein abundance (concentration: 10mM)
SPRYD4 (UniProt Q8WW59),0.979 ± 0.025,0.957 ± 0.033,0.978 ± 0.027,0.986 ± 0.027,1.03 ± 0.029,0.986 ± 0.051
UniProt Q8WYN0 and related entries,1 ± 0.013,1 ± 0.0077,0.993 ± 0.0083,0.9887 ± 0.0043,0.984 ± 0.026,0.9922 ± 0.0012
PIGK (UniProt Q92643),1.03 ± 0.034,0.951 ± 0.085,0.98 ± 0.021,0.953 ± 0.026,0.977 ± 0.032,0.972 ± 0.038
C18orf32 (UniProt Q8TCD1),0.93 ± 0.024,0.992 ± 0.013,0.934 ± 0.025,0.944 ± 0.031,0.901 ± 0.027,0.882 ± 0.047
STT3B (UniProt Q8TCJ2),0.973 ± 0.046,0.946 ± 0.028,0.959 ± 0.011,0.976 ± 0.049,1 ± 0.011,0.984 ± 0.023
NSUN6 (UniProt Q8TEA1),1.03 ± 0.012,1.01 ± 0.043,1.02 ± 0.024,1 ± 0.035,1 ± 0.012,1.02 ± 0.023
UBASH3B (UniProt Q8TF42),0.969 ± 0.05,0.908 ± 0.071,0.959 ± 0.032,0.986 ± 0.064,0.997 ± 0.035,0.959 ± 0.012
SCFD1 (UniProt Q8WVM8),0.988 ± 0.021,0.99 ± 0.023,0.984 ± 0.013,0.967 ± 0.038,0.9484 ± 0.0082,0.96 ± 0.039
UniProt Q8WXA9-2,0.989 ± 0.024,1.02 ± 0.04,1.02 ± 0.043,1.07 ± 0.022,1.09 ± 0.039,1.18 ± 0.055
TFB1M (UniProt Q8WVM0),0.953 ± 0.041,1.01 ± 0.052,0.979 ± 0.042,1.03 ± 0.021,1.06 ± 0.019,1.04 ± 0.061
DHX38 (UniProt Q92620),1.016 ± 0.0095,1.03 ± 0.037,1.03 ± 0.012,1.01 ± 0.055,1.04 ± 0.034,1.03 ± 0.023
SHCBP1 (UniProt Q8NEM2),0.9981 ± 0.0054,1.003 ± 0.0021,1.02 ± 0.033,1.01 ± 0.025,0.987 ± 0.014,1.01 ± 0.023
UniProt Q8TDZ2 and related entries,0.991 ± 0.023,1 ± 0.012,0.995 ± 0.01,0.979 ± 0.022,0.973 ± 0.024,0.982 ± 0.017
CNNM3 (UniProt Q8NE01),0.974 ± 0.029,0.894 ± 0.087,0.954 ± 0.028,0.98 ± 0.047,0.967 ± 0.011,0.936 ± 0.025
UniProt Q8NFA0 and related entries,0.969 ± 0.033,1.01 ± 0.07,0.986 ± 0.035,0.983 ± 0.014,0.94 ± 0.044,0.959 ± 0.035
PPIL4 (UniProt Q8WUA2),1.03 ± 0.0066,1.04 ± 0.018,1.03 ± 0.034,1.01 ± 0.039,1 ± 0.034,1.02 ± 0.018
KHSRP (UniProt Q92945),1.022 ± 0.0033,1.08 ± 0.071,1.01 ± 0.033,0.9997 ± 0.0068,0.976 ± 0.016,0.994 ± 0.046
UniProt Q8TEH3 and related entries,1.03 ± 0.02,1.05 ± 0.12,1.04 ± 0.052,1.08 ± 0.046,1.04 ± 0.038,1.05 ± 0.063
UniProt Q8TCE6 and related entries,0.992 ± 0.025,0.973 ± 0.04,0.956 ± 0.01,0.966 ± 0.023,0.9542 ± 0.006,0.941 ± 0.039

# An excerpt of these results, with bars between the fields:
Target | NP40-soluble protein abundance (concentration: 1mM) | NP40-soluble protein abundance (concentration: 2mM) | NP40-soluble protein abundance (concentration: 4mM) | NP40-soluble protein abundance (concentration: 6mM) | NP40-soluble protein abundance (concentration: 8mM) | NP40-soluble protein abundance (concentration: 10mM)
UniProt Q8TEH3 and related entries | 1.03 ± 0.02 | 1.05 ± 0.12 | 1.04 ± 0.052 | 1.08 ± 0.046 | 1.04 ± 0.038 | 1.05 ± 0.063
UniProt Q8TCE6 and related entries | 0.992 ± 0.025 | 0.973 ± 0.04 | 0.956 ± 0.01 | 0.966 ± 0.023 | 0.9542 ± 0.006 | 0.941 ± 0.039

# Continuation.

Target,NP40-soluble protein abundance (concentration: 1mM),NP40-soluble protein abundance (concentration: 2mM),NP40-soluble protein abundance (concentration: 4mM),NP40-soluble protein abundance (concentration: 6mM),NP40-soluble protein abundance (concentration: 8mM),NP40-soluble protein abundance (concentration: 10mM)
UniProt Q8WU76 and related entries,0.941 ± 0.035,0.881 ± 0.092,0.911 ± 0.038,0.878 ± 0.091,0.877 ± 0.085,0.89 ± 0.1
UniProt Q8NFG4 and related entries,1.03 ± 0.021,1.02 ± 0.024,1.001 ± 0.0095,1 ± 0.023,1.01 ± 0.03,1.02 ± 0.043
ELMO1 (UniProt Q92556),0.966 ± 0.018,0.947 ± 0.021,0.9671 ± 0.0054,0.986 ± 0.018,0.9785 ± 0.0086,0.9827 ± 0.0036
UniProt Q92859 and related entries,1 ± 0.024,1.01 ± 0.042,1.002 ± 0.0089,0.985 ± 0.045,1 ± 0.015,1.019 ± 0.0076
RNF214 (UniProt Q8ND24),1.02 ± 0.021,1.04 ± 0.053,1.02 ± 0.042,1.02 ± 0.016,1.01 ± 0.047,1.02 ± 0.04
NFATC2IP (UniProt Q8NCF5),1.04 ± 0.011,1.08 ± 0.067,1.03 ± 0.062,1.011 ± 0.0037,1.01 ± 0.021,1.02 ± 0.044
UniProt Q8TCZ2 and related entries,0.955 ± 0.057,0.952 ± 0.018,0.921 ± 0.024,0.945 ± 0.043,0.943 ± 0.035,0.951 ± 0.045
TMEM263 (UniProt Q8WUH6),0.972 ± 0.026,1.01 ± 0.098,0.999 ± 0.059,1.07 ± 0.077,1.06 ± 0.056,1.09 ± 0.018
UniProt Q8ND82 and related entries,1.04 ± 0.028,1.07 ± 0.056,1.08 ± 0.026,1.06 ± 0.008,1.07 ± 0.06,1.14 ± 0.014
ZNF740 (UniProt Q8NDX6),0.985 ± 0.021,1.01 ± 0.027,1.03 ± 0.014,1.08 ± 0.07,1.1 ± 0.078,1.1 ± 0.057
UniProt Q92784 and related entries,1.01 ± 0.022,1.01 ± 0.017,0.99 ± 0.034,1.02 ± 0.03,1.01 ± 0.012,0.983 ± 0.0094
NUP210 (UniProt Q8TEM1),0.992 ± 0.025,0.952 ± 0.025,0.975 ± 0.021,0.972 ± 0.037,1.01 ± 0.029,0.986 ± 0.044
UniProt Q8NFF5 and related entries,1.01 ± 0.011,0.997 ± 0.031,0.982 ± 0.013,0.9712 ± 0.0049,0.971 ± 0.017,0.959 ± 0.022
UniProt Q8TBB5 and related entries,1 ± 0.029,1.04 ± 0.044,1.016 ± 0.0083,1.04 ± 0.035,1.01 ± 0.025,1.07 ± 0.051
UniProt Q8TBX8,0.98 ± 0.02,0.979 ± 0.0079,1.01 ± 0.024,1.044 ± 0.0097,1.06 ± 0.04,1.07 ± 0.034
UniProt Q8NEZ2 and related entries,0.99 ± 0.026,1.02 ± 0.061,0.964 ± 0.024,0.952 ± 0.02,0.929 ± 0.025,0.942 ± 0.03
UniProt Q8WUQ7 and related entries,1.05 ± 0.027,1.05 ± 0.027,1.09 ± 0.03,1.06 ± 0.023,1.06 ± 0.031,1.11 ± 0.063
UniProt Q8WUB8 and related entries,1.01 ± 0.045,1.04 ± 0.034,1.07 ± 0.023,1.11 ± 0.045,1.08 ± 0.051,1.15 ± 0.061
